Data from paper PMC11704331.
No constants are given. Whether binding was seen depends on the method and setting. Binding seen in cells or lysates may run through a third protein. Some binding calls cover weakened binding; strength is not graded here.

By UniProt entry, the sequences of proteins in these tests, tags left out.
UniProt Q13547: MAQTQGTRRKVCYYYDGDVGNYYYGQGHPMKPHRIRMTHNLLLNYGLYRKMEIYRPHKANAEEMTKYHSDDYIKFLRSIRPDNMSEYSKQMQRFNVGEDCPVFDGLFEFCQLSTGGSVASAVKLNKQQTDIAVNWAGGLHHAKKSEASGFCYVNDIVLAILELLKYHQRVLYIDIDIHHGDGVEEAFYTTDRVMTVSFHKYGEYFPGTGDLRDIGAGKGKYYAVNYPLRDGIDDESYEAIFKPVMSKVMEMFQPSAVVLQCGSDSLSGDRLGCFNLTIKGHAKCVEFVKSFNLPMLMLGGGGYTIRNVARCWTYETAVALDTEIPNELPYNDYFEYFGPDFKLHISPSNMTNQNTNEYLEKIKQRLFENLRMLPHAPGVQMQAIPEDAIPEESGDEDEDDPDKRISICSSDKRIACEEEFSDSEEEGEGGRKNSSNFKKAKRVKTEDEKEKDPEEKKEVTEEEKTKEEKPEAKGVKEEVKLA

Target: T1, JUNB (human (endogenous in CAPAN1 and CAPAN2)) (UniProt P17275)
T1 sequence: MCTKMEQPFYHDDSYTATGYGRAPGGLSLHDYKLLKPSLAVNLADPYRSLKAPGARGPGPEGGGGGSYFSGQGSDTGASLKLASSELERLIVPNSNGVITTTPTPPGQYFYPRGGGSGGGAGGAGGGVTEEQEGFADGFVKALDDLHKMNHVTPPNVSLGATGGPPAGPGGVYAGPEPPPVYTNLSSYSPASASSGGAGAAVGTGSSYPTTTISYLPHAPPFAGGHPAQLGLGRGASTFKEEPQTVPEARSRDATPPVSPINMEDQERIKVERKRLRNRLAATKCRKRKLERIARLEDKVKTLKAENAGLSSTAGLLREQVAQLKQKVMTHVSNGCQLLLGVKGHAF
Assay: co-IP; JUNB pulldown with antibody and protein A agarose beads from Triton X-100 lysates (500 ug protein) of CAPAN1 and CAPAN2 cells, antibody overnight at 4 °C; immunoblot for JUNB, HDAC1 and β-actin; IgG isotype control and input

binding: binds
Substance: HDAC1 (from UniProt Q13547 1-482) (enzyme)
